Screen size: about 360,000 compounds; about 780 (0.22%) were called active. Inconclusive means that the source gave no clear call. Such entries were picked first, then a sample of the others. Rule as the data show it: active = inhibition above about 35% (passing the limit was not always enough); inconclusive = no clear call, values can overlap the other calls.
What follows are molecules tested on Botulinum neurotoxin type F light chain protease (Clostridium botulinum) (assay: BoNT/F light chain protease inhibitors, primary screen, biochemical, flow cytometry, MLPCN library (AID 588497; also: plate controls were buffer without enzyme for full effect and enzyme alone for no effect)). Settings: Multiplex microsphere protease cleavage assay, at 10 µM, hits give high values.

**Q.** Which inhibition does the source give for `CCCc1oc(C(=O)O)cc1CN1CCOCC1` here?
**A.** active: 42.3%

**Q.** How did the inhibition turn out when `Cc1cccc(Cn2c(N3CCN(C)CC3)nc3c2c(=O)n(C)c(=O)n3C)c1` was run?
**A.** inconclusive: 12.1%

**Q.** How did the inhibition turn out when `Cc1sc(NC(=O)CSc2nnc(N)s2)c(C#N)c1C` was run?
**A.** inactive: 5.1%

**Q.** Which inhibition does the source give for `O=C(OCn1cncn1)c1ccc(Cl)cc1Cl` here?
**A.** inconclusive: -7.6%

**Q.** Which inhibition does the source give for `Nc1nc(Nc2ccccc2)nc(NCCO)c1[N+](=O)[O-]` here?
**A.** inconclusive: 33%

**Q.** Which inhibition does the source give for `O=C1C(=O)N(Cc2ccco2)C(c2cccs2)/C1=C(\O)c1cccc([N+](=O)[O-])c1` (stereo not drawn) here?
**A.** inactive: 1.6%

**Q.** With `O=c1c(/C=N/O)coc2ccc3ccccc3c12` as the molecule, how does the inhibition read?
**A.** inconclusive: -9.7%

**Q.** With `Cc1cccc(NC2=NC3(CCCCC3)N=C(N)N2)c1C` as the molecule, how does the inhibition read?
**A.** inconclusive: -29%

**Q.** How did the inhibition turn out when `COc1cc(S(=O)(=O)N(Cc2cccs2)CC2CCCO2)ccc1-n1cnnn1` (stereo not drawn) was run?
**A.** active: 41.1%

**Q.** Which inhibition does the source give for `COc1ccccc1NC(=S)N1CCN(c2cccc(C)c2C)CC1` here?
**A.** inconclusive: 4.3%

**Q.** Which inhibition does the source give for `CCOc1ccc(OC(=O)c2cccc(S(=O)(=O)N3CCN(C)CC3)c2)cc1` here?
**A.** inconclusive: -13.4%

**Q.** For `COCCCNc1ncnc2ccc(C)cc12`, which inhibition is on record?
**A.** inconclusive: 34.9%

**Q.** How did the inhibition turn out when `COc1ccccc1Cc1nc(-c2cccnc2)no1` was run?
**A.** inconclusive: -13.2%

**Q.** Which inhibition does the source give for `CC(C)Oc1ccc(CN2CCCC(CO)(Cc3ccccc3)C2)cc1CO` (stereo not drawn) here?
**A.** inconclusive: -7.1%

**Q.** For `COc1ccc(NC(=O)CSc2nnc(Cc3ccccc3)c(=O)n2N)cc1OC`, which inhibition is on record?
**A.** inconclusive: -1.2%

**Q.** How did the inhibition turn out when `O=[As](O)(O)c1ccc(N=Nc2ccc(O)cc2)cc1` was run?
**A.** inconclusive: -7.7%

**Q.** How did the inhibition turn out when `CC(Nc1ccc(F)cc1)=[N+](C)CCNS(=O)(=O)c1ccc(Cl)cc1` was run?
**A.** inactive: 4.9%

**Q.** With `COC(=O)N/N=C/c1cn(Cc2ccc(F)cc2)c2ccccc12` as the molecule, how does the inhibition read?
**A.** inconclusive: -28%

**Q.** How did the inhibition turn out when `COCn1c(COc2ccc3ccccc3c2)nc2ccccc21` was run?
**A.** inconclusive: -6.4%

**Q.** Which inhibition does the source give for `O=C(O)c1cccc(S(=O)(=O)Nc2ccc3c(c2)CCC3)c1` here?
**A.** inconclusive: 22.5%

**Q.** For `CC(C)COc1ccc(C(=S)N2CCCC2)cc1`, which inhibition is on record?
**A.** inconclusive: 75.5%

**Q.** With `CCc1nnc(NC(=O)CN2CCN(C3CCCCC3)CC2)s1` as the molecule, how does the inhibition read?
**A.** inactive: -5.3%

**Q.** Which inhibition does the source give for `CC(Oc1cccc(Cl)c1)C(=O)Nc1nc(-c2ccccn2)cs1` (stereo not drawn) here?
**A.** inconclusive: -19.2%

**Q.** For `CC(=O)c1ccc(NC(=O)c2ccc([N+](=O)[O-])o2)cc1`, which inhibition is on record?
**A.** inconclusive: -4.3%

**Q.** `Cn1c(=O)c(=O)n(C)c2cc(S(=O)(=O)N3CCC(N4CCCCC4)CC3)ccc21` was tested. Which inhibition did it give?
**A.** inactive: 2.7%

**Q.** With `CC1CC(NC(=O)/C=C/C(=O)O)CC(C)(C)C1` (stereo not drawn) as the molecule, how does the inhibition read?
**A.** inconclusive: -24.2%

**Q.** Which inhibition does the source give for `CCc1ccc(OCCCCN(C)Cc2ccccc2)cc1` here?
**A.** inconclusive: -29.5%

**Q.** `CCCOc1ccc(-c2nc(-c3ccc([N+](=O)[O-])cc3)cs2)cc1` was tested. Which inhibition did it give?
**A.** inconclusive: 22.4%

**Q.** `CCN(CC)c1ccc(/C=c2\sc3nc4ccccc4n3c2=O)c(O)c1` was tested. Which inhibition did it give?
**A.** inactive: -1.9%

**Q.** `CC(C)C(=O)N1CCN(c2ccccc2NC(=O)c2cccc3ccccc23)CC1` was tested. Which inhibition did it give?
**A.** inconclusive: -98.7%

**Q.** Which inhibition does the source give for `CCOC(=O)/C=c1\s/c(=C(\C#N)C(N)=O)n(-c2ccccc2)c1=O` here?
**A.** inconclusive: 9.4%

**Q.** For `CCCC(=O)Nc1ccc(NC(=O)c2ccccc2Cl)nc1`, which inhibition is on record?
**A.** inconclusive: 14.3%

**Q.** With `COC(=O)c1cccc(C(=O)N2CCC(CO)(CCc3ccccc3)CC2)c1` as the molecule, how does the inhibition read?
**A.** inconclusive: 8.8%

**Q.** Which inhibition does the source give for `COc1cccc(C(C)(O)c2nc(-c3cccc4cccnc34)cs2)c1` (stereo not drawn) here?
**A.** inactive: 4.8%

**Q.** How did the inhibition turn out when `Cc1ccc(NC(=O)CNC(=O)c2cccs2)c(O)c1` was run?
**A.** inconclusive: -8.6%

**Q.** How did the inhibition turn out when `COc1ccccc1C(=O)NC(CCSC)C(=O)N1CCC(Cc2ccccc2)CC1` (stereo not drawn) was run?
**A.** inconclusive: 0%

**Q.** With `CCCNC(=O)c1ccc(-c2nn(C)c(=O)c3ccccc23)cc1` as the molecule, how does the inhibition read?
**A.** inconclusive: 9%

**Q.** How did the inhibition turn out when `Cc1cc(=O)[nH]c(N/N=C/c2ccc(-c3ccc(F)cc3)o2)n1` was run?
**A.** inactive: -2.2%

**Q.** Which inhibition does the source give for `C[C@H](CO)N1C[C@H](C)[C@@H](CN(C)S(=O)(=O)c2cn(C)cn2)Oc2c(NS(=O)(=O)c3ccc(F)cc3)cccc2C1=O` here?
**A.** inactive: -3.1%

**Q.** `Cc1cccnc1NC(=O)CN1C(=O)COc2ccc(Cl)cc21` was tested. Which inhibition did it give?
**A.** inconclusive: -13%

**Q.** How did the inhibition turn out when `O=C(CSc1nnc(-c2ccncc2)n1Cc1ccco1)Nc1ccccc1F` was run?
**A.** inconclusive: 14%

**Q.** For `COCCOc1cc2ncnc(N3CCC(C(=O)O)CC3)c2cc1OCCOC`, which inhibition is on record?
**A.** inconclusive: 83%

**Q.** `Cc1nc(-c2cccc3ccccc23)ccc1C(=O)O` was tested. Which inhibition did it give?
**A.** inactive: -0.2%

**Q.** With `COc1ccc(N2CCOCC2)c(NC(=O)c2cccc3ccccc23)c1` as the molecule, how does the inhibition read?
**A.** inconclusive: -14.3%

**Q.** For `CC(=O)Nc1ccc(NC(=O)CSc2nnnn2-c2ccccc2F)cc1`, which inhibition is on record?
**A.** inconclusive: 36.8%

**Q.** `COc1ccc(/C=N/NC(=O)CNS(=O)(=O)c2ccccc2)cc1` was tested. Which inhibition did it give?
**A.** inconclusive: 8.8%

**Q.** Which inhibition does the source give for `N/C(=N\OC(=O)c1cccc(Cn2cc(C(F)(F)F)ccc2=O)c1)c1ccccc1` here?
**A.** inconclusive: 28.5%

**Q.** How did the inhibition turn out when `COc1ccc2nc(NC(=O)CSc3nc4cccnc4n3C)sc2c1` was run?
**A.** inconclusive: -10.1%

**Q.** `Cc1ccc(S(=O)(=O)N(C)c2ccc(C(=O)NCc3cccnc3)cc2)cc1` was tested. Which inhibition did it give?
**A.** inactive: -1.2%

**Q.** `COC(=O)c1cc(NC(=O)c2ccccc2)c(=O)oc1/C=C/Nc1ccc(Oc2ccccc2)cc1` was tested. Which inhibition did it give?
**A.** active: 54%

**Q.** How did the inhibition turn out when `CC(Oc1ccccc1F)c1nnc(SCC(=O)c2c(N)n(C3CC3)c(=O)[nH]c2=O)o1` (stereo not drawn) was run?
**A.** active: 90.7%

**Q.** `Cc1nn2c(c1-c1ccccc1)NC1=C(C(=O)CCC1)C2c1ccccc1` (stereo not drawn) was tested. Which inhibition did it give?
**A.** active: 35.7%

**Q.** Which inhibition does the source give for `O=C1CS/C(=N/N=C/c2ccccc2)N1c1ccc(O)cc1` here?
**A.** inconclusive: 15.5%

**Q.** With `CCOc1ccccc1NC(=O)c1nnn(CC(=O)Nc2ccc3c(c2)OCO3)c1N` as the molecule, how does the inhibition read?
**A.** inactive: 4.3%

**Q.** How did the inhibition turn out when `CCc1ccc(NC(=O)CSc2n[nH]c(=O)n2C2CC2)cc1` was run?
**A.** inconclusive: -7.3%

**Q.** `O=C(NCc1ccccc1)C(c1ccc(F)cc1)N(Cc1ccc2c(c1)OCO2)C(=O)Cn1nnc(-c2cccs2)n1` (stereo not drawn) was tested. Which inhibition did it give?
**A.** active: 50.9%

**Q.** How did the inhibition turn out when `CCN(CC)c1ccc(/C=N/N(c2ccccc2)c2ccccc2)c(O)c1` was run?
**A.** inactive: -31.7%

**Q.** With `CC1CN(C(=O)Cn2c(C(F)(F)F)nc3ccccc32)CC(C)O1` (stereo not drawn) as the molecule, how does the inhibition read?
**A.** inconclusive: -4.6%

Source: PubChem BioAssay AID588497 (NMMLSC, 2011)
